Experimental data as given in article PMC7819943, “Rice protein-binding microarrays: a tool to detect cis-acting elements near promoter regions in rice”.
The other results are listed elsewhere or left out.

These sequences were tested against T1, OsSMF1 (Oryza sativa, UniProt Q6ZLB0 1-436) (assay: protein-binding microarray (RPBM); PBS, 2% BSA, 51.3 ng/ul salmon testes DNA, 50 uM zinc acetate, 200 nM TF, 25 C, 1 h; high values mean tight binding). Conditions: protein: recombinant; tags: N-terminal polyhistidine and DsRed monomer fusion (pET32a); chain copies: 2; label: CyDye5-dUTP incorporated in the synthesized complementary strand; 3' TTTTT single-stranded linker to array surface; dsDNA, one strand shown.
T1 sequence: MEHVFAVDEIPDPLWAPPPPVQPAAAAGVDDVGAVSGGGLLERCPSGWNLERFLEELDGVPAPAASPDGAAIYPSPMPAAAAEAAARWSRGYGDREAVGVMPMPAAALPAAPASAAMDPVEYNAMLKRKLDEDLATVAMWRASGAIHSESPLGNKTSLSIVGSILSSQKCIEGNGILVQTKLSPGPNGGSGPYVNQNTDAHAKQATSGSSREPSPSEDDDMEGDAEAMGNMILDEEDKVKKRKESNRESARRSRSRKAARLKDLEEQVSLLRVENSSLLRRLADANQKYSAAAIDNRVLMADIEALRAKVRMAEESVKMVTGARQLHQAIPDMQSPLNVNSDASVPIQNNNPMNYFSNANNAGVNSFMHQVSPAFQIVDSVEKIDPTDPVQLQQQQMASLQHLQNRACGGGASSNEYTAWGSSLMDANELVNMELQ
In short: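 Per-feature fluorescence intensity (arbitrary units), read on an Axon 4000B scanner, is the binding signal. Transcription factors carrying an N-terminal polyhistidine tag and DsRed fusion were expressed in E. coli BL21-CodonPlus and purified on Ni–NTA. A custom Agilent array, made double-stranded by primer extension with Cy5-dUTP and blocked with 2% BSA, was incubated with 200 nM protein in PBS, 2% BSA, salmon testes DNA and 50 µM zinc acetate at 25 °C for 1 h and then washed.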

| Sequence | binding signal |
| --- | --- |
| GTGTGCCATGGCCTATCGTTTCCAGATGTTCACGGCAAAGCGGAGTCACCTAGTGCAG | 3270 fluorescence intensity (a.u.) |
| GGTACAGTATACGTGCACAGTAGCGCACGTGCTTCACACCCGGAGTCACCTAGTGCAG | 4750 fluorescence intensity (a.u.) |
| GATAGCCAACTCACCACAAACACCACCCACTTGTCCCATCCGGAGTCACCTAGTGCAG | 4180 fluorescence intensity (a.u.) |
| ACCGTCGACGCGTTTGAGCGCGGCCTACTCGACGAGCCTTCGGAGTCACCTAGTGCAG | 3170 fluorescence intensity (a.u.) |
| TCTGCGCCATCCACGCCAAGCGCGTCACCATCATGCCCAACGGAGTCACCTAGTGCAG | 3300 fluorescence intensity (a.u.) |
| CGTGGATGAGAATCGCCACGGAGGAGCGGATCCTACGTGGCGGAGTCACCTAGTGCAG | 18600 fluorescence intensity (a.u.) |
| TCTACTGTCTGACAAAGTGGGCAGAAGGTCTGACTTGGCCCGGAGTCACCTAGTGCAG | 3800 fluorescence intensity (a.u.) |
| GCGCGGGCGAGGGGCAGCGGCGACGCCCGAAGTGCGCGTGCGGAGTCACCTAGTGCAG | 15400 fluorescence intensity (a.u.) |
| GCGCCGCTCCGTGTCCCTCCCAATCCGAACCGTTTCGCGCCGGAGTCACCTAGTGCAG | 3500 fluorescence intensity (a.u.) |
| CTACAGCAGCAGCCAAAACCAAAGGGAATAGACTAGACCCCGGAGTCACCTAGTGCAG | 37900 fluorescence intensity (a.u.) |
| GCTTCCCGCACGACACCTGTCCACACAAATCTTAGAGCAACGGAGTCACCTAGTGCAG | 41400 fluorescence intensity (a.u.) |
| AATTTTGACGTGGAACTAAACCTAAATCGTATCTCGTTATCGGAGTCACCTAGTGCAG | 6770 fluorescence intensity (a.u.) |
| ATGAAATGGAGGGAGTATCCATTTGCTGACTGCATTGCATCGGAGTCACCTAGTGCAG | 4100 fluorescence intensity (a.u.) |
| GCCTACCACGCCGTCGTCATCGTCCTCCTCCCTTCGCCCACGGAGTCACCTAGTGCAG | 7610 fluorescence intensity (a.u.) |
| ATATATGTCCATGGAGGAGGGTGAGGGGAGTAGTAGGGCGCGGAGTCACCTAGTGCAG | 3540 fluorescence intensity (a.u.) |
| TGAGCCCATTCTATCTTGTACCAATTTGTGGGATATGGCCCGGAGTCACCTAGTGCAG | 41000 fluorescence intensity (a.u.) |
| CCACGTGCAGGTTCGCATGTGGGCCTTGAGGCGAGAATTGCGGAGTCACCTAGTGCAG | 13400 fluorescence intensity (a.u.) |
| GAGGTGCAAAACTTGGTCCATAACCAATTCTCACAAGTGGCGGAGTCACCTAGTGCAG | 19100 fluorescence intensity (a.u.) |
| TTCACACCCAGATAAATACAGCCTACTAGACCAATAGCCACGGAGTCACCTAGTGCAG | 40000 fluorescence intensity (a.u.) |
| GGCGTGGATCGTGGTCGTCGTGGCGAGCTCACCGTGGGCCCGGAGTCACCTAGTGCAG | 4200 fluorescence intensity (a.u.) |
| TCCATCGGCCTCGCCGCCTACCTCCTCGTCATGATCGTCGCGGAGTCACCTAGTGCAG | 3190 fluorescence intensity (a.u.) |

| Sequence | binding signal |
| --- | --- |
| GGCTCGTCGCGTGGAGAGCAACGCTCGCTGCGACCTGCGACGGAGTCACCTAGTGCAG | 3640 fluorescence intensity (a.u.) |
| AATGCTAAGGGACAACGTCAGCGGGTTAGTGCAAGGTAAGCGGAGTCACCTAGTGCAG | 6630 fluorescence intensity (a.u.) |
| GGCCACGTCCGTGGCTTGCTCACTCGCCGCGTCGTCAGCCCGGAGTCACCTAGTGCAG | 7280 fluorescence intensity (a.u.) |
| CAAAAGATGCCCTGTGTTTCCTCGAGAGGCATTTACGTTGCGGAGTCACCTAGTGCAG | 3610 fluorescence intensity (a.u.) |
| GGCTTCGGCCAGCTAGCCGCCACGTCTCCGCCGGTTTTAACGGAGTCACCTAGTGCAG | 8270 fluorescence intensity (a.u.) |
| TCGGTAGAGGGAATGGCTCTGCAACCATATCATTCTATTTCGGAGTCACCTAGTGCAG | 9160 fluorescence intensity (a.u.) |
| CAACAGTCAGCACAGGCGTGTCCAATGCATGCCGACTCTTCGGAGTCACCTAGTGCAG | 3160 fluorescence intensity (a.u.) |
| CTCCGTTTTCATCCCTGGCCACCAGCGGTCATCCAGGATCCGGAGTCACCTAGTGCAG | 4250 fluorescence intensity (a.u.) |
| TGTTTGGACATATGCATGGAGCATTAAATGTGGATGAAAACGGAGTCACCTAGTGCAG | 4350 fluorescence intensity (a.u.) |
| TACTCGTCGTCATCCTCACCGTCTCTAATACATACTTCCCCGGAGTCACCTAGTGCAG | 3470 fluorescence intensity (a.u.) |
| AACTTGCAGGTACGCCGTCGGAGTGAACATCGTCGTCTGCCGGAGTCACCTAGTGCAG | 8700 fluorescence intensity (a.u.) |
| CCCTTTCAAACACTTCCCAACTCATCACGCCTCTGGCAAACGGAGTCACCTAGTGCAG | 4180 fluorescence intensity (a.u.) |
| ATCCCTAAACCACAATACCACATATGTCGATACCTCAACTCGGAGTCACCTAGTGCAG | 3630 fluorescence intensity (a.u.) |
| AGTCATCCAGTCATCGCTTGGTGGCACTCGCCGTCGCCGCCGGAGTCACCTAGTGCAG | 6120 fluorescence intensity (a.u.) |
| TGGATGTTGCATTTGGTACTTGATGTTGCAGGTGATTTCTCGGAGTCACCTAGTGCAG | 4380 fluorescence intensity (a.u.) |
| CAGCCGGCGATACTATTGAACCTGCTCCGATACTATTGAACGGAGTCACCTAGTGCAG | 19500 fluorescence intensity (a.u.) |
| TAGAAGCCCATTTAACAATTAGTTGGCGTCTCGCAATACACGGAGTCACCTAGTGCAG | 31400 fluorescence intensity (a.u.) |
| GTGCAAAAGGATGGGGAAGAGATAAGGTGTTCCCTGCTTTCGGAGTCACCTAGTGCAG | 3450 fluorescence intensity (a.u.) |
| TTCATTTCATATCATAAATCACTTTAACCCTTTTCTACCTCGGAGTCACCTAGTGCAG | 13400 fluorescence intensity (a.u.) |
| AAGTGCTCACGTCATGCCGACGCAGGCATATCATCCCCGACGGAGTCACCTAGTGCAG | 12200 fluorescence intensity (a.u.) |
| CCAATCCAAACAAGGTTTGGGGATATTTCTGACACAGGGCCGGAGTCACCTAGTGCAG | 30500 fluorescence intensity (a.u.) |

Laid out differently: entries from further up
Sequence	binding signal
GCGCGGGCGAGGGGCAGCGGCGACGCCCGAAGTGCGCGTGCGGAGTCACCTAGTGCAG	15400 fluorescence intensity (a.u.)
GCGCCGCTCCGTGTCCCTCCCAATCCGAACCGTTTCGCGCCGGAGTCACCTAGTGCAG	3500 fluorescence intensity (a.u.)
CTACAGCAGCAGCCAAAACCAAAGGGAATAGACTAGACCCCGGAGTCACCTAGTGCAG	37900 fluorescence intensity (a.u.)
